Assay results as given in patent US6639089B2, “Anticancer agents, perfumes or foods and drinks” (Soda Aromatic Co., Ltd., priority 2001, dated 2003).
Some results were stated once for a whole list of compounds, not compound by compound. Some compounds share one range, which may span the group rather than tell each member.

test system: melanoma cell line B16BL6; assay: Cancer cell mobility test (cancer invasion inhibitory action), Boyden double chamber with Matrigel/fibronectin; format: cell-based; details: 20 μM
Method: (§1) A Boyden double chamber was used, in which a porous film with 8 μm pores was placed, the upper surface of the porous film being coated with Matrigel as a reconstructed membrane, the lower surface of the porous film being coated with fibronectin as an extracellular matrix. In the upper compartment of the chamber, 200,000 cells of melanoma cell line B16BL6, a type of skin cancer, were inoculated, and after 3.5 hours, Diff Quick staining was performed and the number of invasive cancer cells invading the lower compartment was counted using a CCD camera/multibioscanner. The compounds of the present invention were administered to cancer cells for 18 hours in advance at amounts of 5 μM and 20 μM.

Compound	cancer invasion was inhibited to approximately (%)
O=C1CCCC=CCCCCCCCCCC1 [5-cyclohexadecen-1-one]	20 to 30
O=C1CCCCCCCC=CCCCCCCO1 [9-hexadecen-16-olide]	20 to 30
O=C(O)CCCCCCCCCCC(=O)CCCO [15-hydroxy-12-oxopentadecanoic acid]	20 to 30
O=C(O)CCCCCCCCCCCCCCO [15-hydroxypentadecanoic acid]	20 to 30

test system: human fibrosarcoma cell line HT1080; assay: as above; format: cell-based; details: 10 μM
Method: as §1, with “of human fibrosarcoma” for “of melanoma”, “line HT1080” for “line B16BL6, a type of skin cancer,”, “and 10” for “and 20”

Compound	cancer invasion was inhibited to approximately (%)
12-oxahexadecen-16-olide	16 to 30
CCCCCCCCCCCC1CCCC(=O)O1 (stereo not drawn) [5-hexadecanolide]	16 to 30
O=C(O)CCCCCCCCCCCC(=O)CCCO [16-hydroxy-13-oxohexadecanoic acid]	16 to 30
O=C1CCCCCCCCCCCC(=O)OCCO1 [Ethylene tridecanedioate]	16 to 30
CCOC(=O)CCCCCCCC=CCCCCCCO [ethyl-16-hydroxy-9-hexadecenoate]	16 to 30
